In publication PMC4571948:

Columns and labels:
[1] = target: zDHHC13 ΔN truncation mutant, Cub-PLV bait (murine); assay: two-hybrid; mating-based split ubiquitin system (SUS) in yeast: zDHHC-Cub-PLV baits, NubG-2HA-tagged preys; growth on synthetic defined medium (PLV-dependent activation of auxotrophy genes)
[2] = target: zDHHC17 ΔN truncation mutant, Cub-PLV bait (murine); assay: as above

| binding [1] | binding [2] | Binder |
| --- | --- | --- |
| binds | binds | NubG-2HA-tagged SNAP23 (wild type) (protein, UniProt O09044 1-210) MDNLSPEEVQLRAHQVTDESLESTRRILGLAIESQDAGIKTITMLDEQGEQLNRIEEGMDQINKDMREAEKTLTELNKCCGLCICPCNRTKNFESGKNYKATWGDGGDNSPSNVVSKQPSRITNGQPQQTTGAASGGYIKRITNDAREDEMEENLTQVGSILGNLKNMALDMGNEIDAQNQQIQKITEKADTNKNRIDIANTRAKKLIDS |
| binds | binds | NubG-2HA-tagged CLIP3 (wild type) (protein, UniProt Q96DZ5 1-547) MTKTDPAPMAPPPRGEEEEEEEEDEPVPEAPSPTQERRQKPVVHPSAPAPLPKDYAFTFFDPNDPACQEILFDPQTTIPELFAIVRQWVPQVQHKIDVIGNEILRRGCHVNDRDGLTDMTLLHYACKAGAHGVGDPAAAVRLSQQLLALGADVTLRSRWTNMNALHYAAYFDVPDLVRVLLKGARPRVVNSTCSDFNHGSALHIAASSLCLGAAKCLLEHGANPALRNRKGQVPAEVVPDPMDMSLDKAEAALVAKELRTLLEEAVPLSCALPKVTLPNYDNVPGNLMLSALGLRLGDRVLLDGQKTGTLRFCGTTEFASGQWVGVELDEPEGKNDGSVGGVRYFICPPKQGLFASVSKISKAVDAPPSSVTSTPRTPRMDFSRVTGKGRREHKGKKKTPSSPSLGSLQQRDGAKAEVGDQVLVAGQKQGIVRFYGKTDFAPGYWYGIELDQPTGKHDGSVFGVRYFTCPPRHGVFAPASRIQRIGGSTDSPGDSVGAKKVHQVTMTQPKRTFTTVRTPKDIASENSISRLLFCCWFPWMLRAEMQS |
| binds | binds | NubG-2HA-tagged CSPα (wild type) (protein, UniProt Q29455 1-198) MADQRQRSLSTSGESLYHVLGLDKNATSDDIKKSYRKLALKYHPDKNPDNPEAADKFKEINNAHAILTDATKRNIYDKYGSLGLYVAEQFGEENVNTYFVLSSWWAKALFIFCGLLTCCYCCCCLCCCFNCCCGKCKPKAPEGEETEFYVSPEDLEAQLQSDEREAADTPIVIQPASATETTQLTADSHPSYHTDGFN |

No constants are given. Whether binding was seen depends on the method and setting. A result given as binding can be weak or reduced; the word gives no strength. Sequences can lack the tags named with a protein.
